{"source": "PubChem BioAssay AID1671195 (Yale University, 2021)", "assay": "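Genes whose knockdown alters LDL uptake in liver cancer cells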 (primary screen)", "system": "human Huh7 hepatoma cells", "reagents": "siRNA pool against human genes, 18 nM", "duration": "about 2 to 2.5 days of knockdown, then 8 h LDL uptake", "treatment": "DiI-labelled LDL at 30 µg/ml for 8 h, in lipoprotein-deficient serum medium", "detection": "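Fluorescent LDL signal imaged in cells, scaled to the plate median, robust z-score for each replicate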", "reading the numbers": "robust z-score: higher = more LDL uptake after knockdown", "active means": "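Active when two or more replicates show a robust z-score above 2 or below -2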", "note": "The whole screen tested about 22,000 reagents; below is an unselected part. About 1,510 of them (6.9%) were called active. 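Active includes knockdowns raising or lowering LDL uptake; positive z-scores mean more uptake, negative mean less.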"}
{"target gene":"ZNF542P","robust z-score, replicate 1":0.589,"robust z-score, replicate 2":0.358,"robust z-score, replicate 3":0.668,"Outcome":"inactive"}
{"target gene":"LOC388477 (retired record)","robust z-score, replicate 1":1.89,"robust z-score, replicate 2":1.11,"robust z-score, replicate 3":1.61,"Outcome":"inactive"}
{"target gene":"PLD5","robust z-score, replicate 1":-0.764,"robust z-score, replicate 2":0.0335,"robust z-score, replicate 3":-0.126,"Outcome":"inactive"}
{"target gene":"IL11RA","robust z-score, replicate 1":-0.663,"robust z-score, replicate 2":-0.774,"robust z-score, replicate 3":-0.743,"Outcome":"inactive"}
{"target gene":"PEA15","robust z-score, replicate 1":1.72,"robust z-score, replicate 2":1.14,"robust z-score, replicate 3":0.648,"Outcome":"inactive"}
{"target gene":"ZBTB38","robust z-score, replicate 1":1.41,"robust z-score, replicate 2":0.524,"robust z-score, replicate 3":1.77,"Outcome":"inactive"}
{"target gene":"ZWILCH","robust z-score, replicate 1":-1.39,"robust z-score, replicate 2":-1.85,"robust z-score, replicate 3":-0.329,"Outcome":"inactive"}
{"target gene":"TMEM31","robust z-score, replicate 1":0.614,"robust z-score, replicate 2":0.261,"robust z-score, replicate 3":0.776,"Outcome":"inactive"}
{"target gene":"DIXDC1","robust z-score, replicate 1":0.924,"robust z-score, replicate 2":0.807,"robust z-score, replicate 3":0.81,"Outcome":"inactive"}
{"target gene":"IRX2","robust z-score, replicate 1":-0.0826,"robust z-score, replicate 2":0.125,"robust z-score, replicate 3":0.102,"Outcome":"inactive"}
{"target gene":"CAPN13","robust z-score, replicate 1":0.975,"robust z-score, replicate 2":-0.355,"robust z-score, replicate 3":0.0886,"Outcome":"inactive"}
{"target gene":"AGXT2","robust z-score, replicate 1":-1.04,"robust z-score, replicate 2":-0.878,"robust z-score, replicate 3":-0.867,"Outcome":"inactive"}
{"target gene":"DHRS7B","robust z-score, replicate 1":-1.09,"robust z-score, replicate 2":-1.25,"robust z-score, replicate 3":-1.31,"Outcome":"inactive"}
{"target gene":"MPZL3","robust z-score, replicate 1":0.203,"robust z-score, replicate 2":-0.356,"robust z-score, replicate 3":-0.769,"Outcome":"inactive"}
{"target gene":"MED1","robust z-score, replicate 1":-0.484,"robust z-score, replicate 2":-0.759,"robust z-score, replicate 3":-0.287,"Outcome":"inactive"}
{"target gene":"PCDHGA7","robust z-score, replicate 1":1.06,"robust z-score, replicate 2":0.832,"robust z-score, replicate 3":1,"Outcome":"inactive"}
{"target gene":"TOB2P1","robust z-score, replicate 1":-0.803,"robust z-score, replicate 2":-0.758,"robust z-score, replicate 3":-0.352,"Outcome":"inactive"}
{"target gene":"CATSPERG","robust z-score, replicate 1":-1.49,"robust z-score, replicate 2":-1.88,"robust z-score, replicate 3":-0.795,"Outcome":"inactive"}
{"target gene":"TMEM138","robust z-score, replicate 1":-1.24,"robust z-score, replicate 2":-2.22,"robust z-score, replicate 3":-2.14,"Outcome":"active"}
{"target gene":"TECRL","robust z-score, replicate 1":-1.39,"robust z-score, replicate 2":-1.24,"robust z-score, replicate 3":-1.19,"Outcome":"inactive"}
{"target gene":"ALKBH1","robust z-score, replicate 1":-1.2,"robust z-score, replicate 2":-0.888,"robust z-score, replicate 3":-1.14,"Outcome":"inactive"}
{"target gene":"TMEM126A","robust z-score, replicate 1":0.176,"robust z-score, replicate 2":1.53,"robust z-score, replicate 3":0.774,"Outcome":"inactive"}
{"target gene":"LOC440180","robust z-score, replicate 1":0.087,"robust z-score, replicate 2":0.0873,"robust z-score, replicate 3":0.763,"Outcome":"inactive"}
{"target gene":"IFT70B","robust z-score, replicate 1":0.848,"robust z-score, replicate 2":0.404,"robust z-score, replicate 3":-0.506,"Outcome":"inactive"}

2 neighbouring reagents already listed, quoted:
{"target gene":"CAPN13","robust z-score, replicate 1":0.975,"robust z-score, replicate 2":-0.355,"robust z-score, replicate 3":0.0886,"Outcome":"inactive"}
{"target gene":"AGXT2","robust z-score, replicate 1":-1.04,"robust z-score, replicate 2":-0.878,"robust z-score, replicate 3":-0.867,"Outcome":"inactive"}
